Data from US20030124644.
Construct, isoform or probe ends are uncertain for at least one entry. Results from cells or extracts need not show a direct contact. For part of these data: Weaker means in comparison with the reference protein, sequence or condition of that experiment. Where a protein sequence is shown, tags need not be part of it.

Assays:
[1] = system: T1, ScbR (Streptomyces coelicolor); test: footprint; conditions: DNase I, protein in a lysate after overexpression, label: 5'-32P
T1 sequence: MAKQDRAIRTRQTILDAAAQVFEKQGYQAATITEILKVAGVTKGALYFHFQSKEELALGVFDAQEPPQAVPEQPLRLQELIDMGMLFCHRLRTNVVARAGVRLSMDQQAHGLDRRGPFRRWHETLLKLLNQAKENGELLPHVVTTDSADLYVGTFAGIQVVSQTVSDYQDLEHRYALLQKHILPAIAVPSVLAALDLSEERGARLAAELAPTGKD

[2] = system: T1, ScbR (Streptomyces coelicolor); test: EMSA; conditions: HEPES pH 7.5, KCl, calf thymus DNA, room temp; competed by excess unlabelled fragment; binding markedly reduced by 1 ug SCB1, little or no effect of its stereoisomers; protein in a lysate after overexpression; label: 5'-32P

“CGTTAAGATACAGACTGAGCGGTTTTTTTT (double strand) [ScbR binding site No.1 (upstream of scbA)]”: binds ([1]; stronger affinity than site No.2 by extract dilution).
“GGAACCGGCAATGCGGTTTGTTCGATCG (double strand) [ScbR binding site No.2 (upstream of scbR)]”: binds more weakly ([1]; protected, lower affinity than site No.1).
“GGAACCGGCAATGCGGTTTGTTCGATCGAGTTGGCATCGGACGCAGAATTGATCAAAACTACTGCTTCGGGCATGGGTCCCCCCCAGGAATCATGTGATGCCGAGCTGTTCTGTATGCGCGAACGTTAAGATACAGACTGAGCGGTTTTTTTT (double strand)”: binds [2].
